{
  "source": "paper PMC10454580",
  "about": "“Exploring the Binding Affinity of the ARR2 GARP DNA Binding Domain via Comparative Methods”",
  "molecular_target": "T1, GARP2-eGFP (ARR2 GARP DNA-binding domain) (UniProt Q9ZWJ9)",
  "T1 sequence (looked up, limits assumed)": "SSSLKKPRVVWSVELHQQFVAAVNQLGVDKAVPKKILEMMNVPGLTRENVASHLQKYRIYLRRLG",
  "assay": "qDPI-ELISA",
  "conditions": "qDPI-ELISA: TBS/TBS-T (20 mM Tris, 0.18 M NaCl, pH 7.5, 0.1% Tween-20), RT about 25 C; protein in a lysate after overexpression; protein details: eGFP fusion (pET-Dest42-GFP)",
  "note": "The exact form of at least one protein or probe is not confirmed. Where cells or extracts were used, other partners may take part. Tags and fusion partners may be left off the protein sequences shown.",
  "data": [
    {"sequence": "TTAACAATCTCAAAGATTTTGTAGATTGAAATACAAATCTTCTCT (double strand) [wtOligo (ARR5 promoter fragment)]", "values": [
      {"measurement": "binding result", "result": "binds"}
    ]}
  ]
}
